This is an account of results in article PMC9634614.

Results are given in words; binding and its absence hold for the method and conditions named.

Assay in all cases: SEC; gel filtration of the recombinant NHL domains without the expression tags; purification SEC on Superdex s75 (TRIM2, TRIM3) or s200 (TRIM71) in 20 mM HEPES pH 7.5, 200 mM NaCl, 0.5 mM TCEP; both purified
In test [1] the target is NHL domain of human TRIM3 (aa 466–744) (human) (UniProt O75382).
The target of test [2] is NHL domain of human TRIM71 (aa 590–868) (human) (UniProt Q2Q1W2).
Test [3] concerns the target NHL domain of human TRIM2 (aa 466–744) (human) (UniProt Q9C040).

B1: NHL domain of human TRIM3 (aa 466–744) (domain or fragment, UniProt O75382 466-744)
chain: NPIEDELVFRVGSRGREKGEFTNLQGVSAASSGRIVVADSNNQCIQVFSNEGQFKFRFGVRGRSPGQLQRPTGVAVDTNGDIIVADYDNRWVSIFSPEGKFKTKIGAGRLMGPKGVAVDRNGHIIVVDNKSCCVFTFQPNGKLVGRFGGRGATDRHFAGPHFVAVNNKNEIVVTDFHNHSVKVYSADGEFLFKFGSHGEGNGQFNAPTGVAVDSNGNIIVADWGNSRIQVFDSSGSFLSYINTSAEPLYGPQGLALTSDGHVVVADAGNHCFKAYRYLQ
For B1, the binding entry in test [1] was “no binding”.

B2: NHL domain of human TRIM71 (aa 590–868) (domain or fragment, UniProt Q2Q1W2 590-868)
chain: GLPGLSFGSEGDSDGKLCRPWGVSVDKEGYIIVADRSNNRIQVFKPCGAFHHKFGTLGSRPGQFDRPAGVACDASRRIVVADKDNHRIQIFTFEGQFLLKFGEKGTKNGQFNYPWDVAVNSEGKILVSDTRNHRIQLFGPDGVFLNKYGFEGALWKHFDSPRGVAFNHEGHLVVTDFNNHRLLVIHPDCQSARFLGSEGTGNGQFLRPQGVAVDQEGRIIVADSRNHRVQMFESNGSFLCKFGAQGSGFGQMDRPSGIAITPDGMIVVVDFGNNRILVF
As to B2, the binding entry in test [2] is “no binding”.

B3: NHL domain of human TRIM2 (aa 466–744) (domain or fragment, UniProt Q9C040 466-744)
chain: NPIEDDLIFRVGTKGRNKGEFTNLQGVAASTNGKILIADSNNQCVQIFSNDGQFKSRFGIRGRSPGQLQRPTGVAVHPSGDIIIADYDNKWVSIFSSDGKFKTKIGSGKLMGPKGVSVDRNGHIIVVDNKACCVFIFQPNGKIVTRFGSRGNGDRQFAGPHFAAVNSNNEIIITDFHNHSVKVFNQEGEFMLKFGSNGEGNGQFNAPTGVAVDSNGNIIVADWGNSRIQVFDGSGSFLSYINTSADPLYGPQGLALTSDGHVVVADSGNHCFKVYRYLQ
In the case of B3, the binding entry in test [3] is recorded as “no binding”.
